The values below come from patent KR20200132110A.

Amino acid sequences for entries named in this document (tags omitted). Residues count along the entry.
UniProt P16070, residues 21-742: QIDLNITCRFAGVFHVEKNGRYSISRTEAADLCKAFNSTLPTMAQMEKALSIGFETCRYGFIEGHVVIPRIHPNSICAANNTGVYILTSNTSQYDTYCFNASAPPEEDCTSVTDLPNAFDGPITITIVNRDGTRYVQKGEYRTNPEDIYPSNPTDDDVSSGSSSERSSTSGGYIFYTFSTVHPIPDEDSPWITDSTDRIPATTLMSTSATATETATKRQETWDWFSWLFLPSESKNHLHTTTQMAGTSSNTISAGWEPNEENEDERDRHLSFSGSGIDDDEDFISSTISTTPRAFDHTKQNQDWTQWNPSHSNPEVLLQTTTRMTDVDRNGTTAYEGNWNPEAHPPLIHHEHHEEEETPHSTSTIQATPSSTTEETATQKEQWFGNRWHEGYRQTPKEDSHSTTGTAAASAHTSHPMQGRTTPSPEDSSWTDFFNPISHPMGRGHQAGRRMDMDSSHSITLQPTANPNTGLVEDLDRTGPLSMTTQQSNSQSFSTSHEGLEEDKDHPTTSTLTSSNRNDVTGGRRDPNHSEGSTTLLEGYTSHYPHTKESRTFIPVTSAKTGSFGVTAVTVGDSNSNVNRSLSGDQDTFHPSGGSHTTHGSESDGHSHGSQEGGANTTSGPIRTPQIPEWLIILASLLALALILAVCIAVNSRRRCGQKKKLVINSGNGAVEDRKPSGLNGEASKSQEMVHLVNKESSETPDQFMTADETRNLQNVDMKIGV

Experiment [1] addresses CD71 단백질(Pro1), 재조합 단백질 (UniProt P02786). Nature of the experiment: ELISA on coated recombinant protein. For orientation: In an ELISA, binding on a coated surface is turned into a signal by an enzyme label.
Experiment [2] has the same target. Nature of the experiment: ELISA, 100 nM coated recombinant protein, antibody 1 μg/mL.
The target of experiment [3] is CD44 (암 줄기세포막 타겟 항원, on cells) (UniProt P16070). Nature of the experiment: flow cytometry on NCI-87 gastric cancer cells. In general terms: In flow cytometry, cells or beads pass a laser one at a time.
The target is the same in experiment [4]. Nature of the experiment: flow cytometry on a cancer stem cell line and breast cancer cell lines.
The target is the same in experiment [5]. Nature of the experiment: in situ IP with LC-MS/MS; binding to CD44+ cells against CD44 gene knockout cells, compared with a commercial CD44 antibody.

No constants are given. Whether binding was seen depends on the method and setting. Some binding calls cover weakened binding; strength is not graded here.

B1: 1E12 항체 (antibody, V domains shown)
VH: QMQLVQSGAEVKKPGASVKVSCKASGYIFTDYYMHWVRQAPGQGLEWMGGISPIFGTANYAQNFQGRVTITADESTTTAYMELSNLRSEDTAVYYCAKDGAGPEYYYYGLDVWGQGTSVTVSS
VL: QSALTQPPSVSGSPGQSVTISCTGTSSDIGGYNYVSWYQHHPGKAPKLVISEVTKRPSGVPGRFSGSKSGNTASLTVSGLQAEDEADYYCSSYSDSDNLLFGGGTKLTVLG
As for B1, the binding entry was “binds” with CD71 단백질(Pro1), 재조합 단백질 [1] and “binds” with CD71 단백질(Pro1), 재조합 단백질 [2].

B2: 3C7 항체 (antibody, V domains shown)
VH: QVQLVQSGGGLVQPGRSLRLSCAASGFTFGDYGMHWVRQAPGRGLEWVSGISWNSDTIGLADSVKGRFTVSRDNAKNSLYLQMNSLRAEDTAVYYCARPAFISGWYPGFFDIWGQGTMVTVSS
VL: QSALTQPASVSGSPGQSITISCSGTTRDVGRYDYVSWYRQYPGEAPQLLIYDVSKRPSGVSNRFFDSKSGNTASLTISGLQADDEADYYCCSYAGNSTYVFGTGTKVTVLG
In the case of B2, the binding entry in experiment [3], in experiment [4] and in experiment [5] was “binds” in each case.
